Experimental findings from patent US4782160A, “1,4-dihydropyridine derivatives” (Yamanouchi Pharmaceutical Co., Ltd., priority 1986, dated 1988) are described below.

The test concerns the target [^3 H]-Nitrendipine-labeled calcium channels. In words: [3H]-nitrendipine binding assay in rat brain membranes (Ca2+-antagonistic activity). The note with it: mean of 3 experiments, 95% confidence limits in parenthesis on next line. How it is done: 1. Ca^2+ -Antagonistic activity:
Ca^2+ -Antagonistic activity of the compound was evaluated in [^3 H]-nitrendipine ([^3 H]-NIT) binding assay.

`COC(=O)C1=C(C)NC(C)=C(C(=O)OC)C1c1ccccc1[N+](=O)[O-]` [Nifedipine, reference compound]: the inhibitory constant (Ki) was found to be 4.6 nM.
